Data from PubChem BioAssay AID180 (DTP/NCI, 2004).
The list is a part of this screen's results and no random one: it gathers some chemical classes. Other doses and runs of a compound may be missing. T/C: endpoint of the treated group in % of that of the vehicle group. Schedules are NCI's codes, taken here to give the interval after Q, in days (D) or hours (H), and the number of doses after X. Some T/C values carry the count of animals alive at the toxicity check; without a count or a note in brackets, all were alive then. Some entries hold several experiments; the values are given in rising order. Some doses have a count of surviving animals in place of a T/C: the source files T/C as zero there, which appears to mark a toxic dose or a test without result, not a measured value. Survivors were counted at the toxicity check; its day is shown where the source gives one, and later deaths do not show.

Tested on: BDF1 mice, Adenocarcinoma 755 s.c., tumor weight T/C
Test: NCI In Vivo Anticancer Drug Screen. Data for tumor model Adenocarcinoma 755 (subcutaneous) in B6D2F1 (BDF1) mice
Conditions: T/C endpoint: mean tumor weight, schedule: Q01DX011 (ip), higher T/C = larger tumour; for T/C: evaluated on day 12
Experimental: The antitumor activity of compounds was measured in mice bearing transplantable tumors. Survival or tumor size were measured and the results are expressed as the measurement made in the treated group (T) divided by the measurement made in the vehicle treated control group (C). The tumor model used in this assay is Adenocarcinoma 755 (subcutaneous) in B6D2F1 (BDF1) mice

[1] = dose: 150.0 mg/kg/injection, vehicle: methylcellulose (MC)

Structure (SMILES): O=P(NCCCO)(OCCCCl)N(CCCl)CCCl (configuration not stated)
- T/C (dose: 28.0 mg/kg/injection, vehicle: methylcellulose (MC)): 71 % of control
- T/C (dose: 56.0 mg/kg/injection, vehicle: methylcellulose (MC)): 54 % of control
- T/C (dose: 112.0 mg/kg/injection, vehicle: methylcellulose (MC)): 26 % of control [9 of 10 alive]
- T/C (dose: 225.0 mg/kg/injection, vehicle: methylcellulose (MC)): 3 % of control [7 of 10 alive]

Structure (SMILES): S=P1(N(CCCl)CCCl)NCCCO1 (configuration not stated)
- T/C (dose: 13.0 mg/kg/injection, vehicle: methylcellulose (MC)): 82 % of control
- T/C (dose: 26.0 mg/kg/injection, vehicle: methylcellulose (MC)): 108 % of control [9 of 10 alive]
- T/C (dose: 53.0 mg/kg/injection, vehicle: methylcellulose (MC)): 99 % of control
- T/C (dose: 116.0 mg/kg/injection, vehicle: methylcellulose (MC)): 80 % of control [9 of 10 alive]
- survivor count [1]: 6 of 10
- T/C (dose: 200.0 mg/kg/injection, vehicle: methylcellulose (MC)): 88 % of control [8 of 10 alive]

Structure (SMILES): O=P(NCCCO)(OCCCl)N(CCCl)CCCl (configuration not stated)
- T/C (dose: 28.0 mg/kg/injection, vehicle: distilled water + alcohol): 88 % of control [9 of 10 alive]
- T/C (dose: 37.5 mg/kg/injection, vehicle: methylcellulose (MC)): 73 and 89 % of control [9 of 10 alive]
- T/C (dose: 57.0 mg/kg/injection, vehicle: distilled water + alcohol): 123 % of control [8 of 10 alive]
- T/C (dose: 75.0 mg/kg/injection, vehicle: methylcellulose (MC)): 42 and 79 % of control [9 of 10 alive]
- T/C (dose: 113.0 mg/kg/injection, vehicle: distilled water + alcohol): 85 % of control [9 of 10 alive]
- T/C [1]: 9 % of control
- survivor count [1]: 6 of 10
- T/C (dose: 300.0 mg/kg/injection, vehicle: methylcellulose (MC)): 2 [9 of 10 alive] and 25 % of control [8 of 10 alive]

Structure (SMILES): CC1CCNP(=O)(N(CCCl)CCCl)O1 (configuration not stated)
- T/C (dose: 12.0 mg/kg/injection, vehicle: saline): 105 % of control
- T/C (dose: 25.0 mg/kg/injection, vehicle: saline): 71 % of control
- T/C (dose: 50.0 mg/kg/injection, vehicle: saline): 32 % of control
- T/C (dose: 100.0 mg/kg/injection, vehicle: saline): 2 [7 of 10 alive] and 3 % of control
